From patent publication US20230312702A1 (KINDRED BIOSCIENCES, published 2023)
Positions count from the first letter of the chain named. Results are given in words; binding and its absence hold for the method and conditions named. Some binding calls cover weakened binding; strength is not graded here. Where a sequence is shown, tags or fusion partners need not be part of it. Each block holds one binder with its values, some of them ahead of it.

Experiments:
[1] = target: T1, pGEX_GST-IL31. P12-E21*(clone 24-7); experiment: immunoblot of GST-IL31 fragment fusions; probe is M14 or caninized M14, the sheet does not say which; anti-GST blot below
T1 sequence (GST fusion protein): PSDVRKIILE

GST-IL31.P12-E21.V15A = target: T2, GST-IL31.P12-E21.V15A; experiment: as above
T2 sequence (GST fusion protein): PSDARKIILE

[2] = target: T1, pGEX_GST-IL31. P12-E21*(clone 24-7); experiment: immunoblot of E. coli lysates with GST-IL31 fragment fusions; probe is M14 or caninized M14, the sheet does not say which; anti-GST blot below
[3] = target: T3, pGEX_GST-IL31. P12-E21*.R16A (Clones 53.1 & 53.8); experiment: immunoblot of E. coli lysates with GST-IL31 fragment fusions; probe is M14 or caninized M14, the sheet does not say which; anti-GST blot below shows lanes 3 and 8 loaded
T3 sequence (GST fusion protein): PSDVAKIILE

[4] = target: T1, pGEX_GST-IL31. P12-E21*(clone 24-7); experiment: immunoblot of GST-IL31 fragment fusions probed with mouse M14 (panel label reads 'Anti-IL13 (hybridoma)'); anti-GST blot below
GST-IL31.P12-E21.I19A [5] = target: T4, GST-IL31.P12-E21.I19A; experiment: as above
T4 sequence (GST fusion protein): PSDVRKIALE

GST-IL31.P12-E21.L20A [6] = target: T5, GST-IL31.P12-E21.L20A; experiment: as above
T5 sequence (GST fusion protein): PSDVRKIIAE

GST-IL31(P34-K58*) = target: T6, GST-IL31(P34-K58*); experiment: immunoblot of GST-canine IL31 fusions expressed in E. coli, membrane probed with chimeric M14; anti-GST blot of the same samples in Fig. 6B
T6 sequence (GST fusion protein): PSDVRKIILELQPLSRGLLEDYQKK

[7] = target: T7, GST canine IL31 fragment fusion containing the minimal fragment (SEQ ID NO: 23) (canine); experiment: as above
T7 sequence: PSDVRKIILELQPLSRG

GST-IL31(P34-K58*).E43A = target: T8, GST-IL31(P34-K58*).E43A; experiment: as above
T8 sequence (GST fusion protein): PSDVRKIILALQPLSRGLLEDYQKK

[8] = target: T7, GST canine IL31 fragment fusion containing the minimal fragment (SEQ ID NO: 23) (canine); experiment: immunoblot of GST canine IL31 fragment fusions probed with chimeric M14
[9] = target: T1, pGEX_GST-IL31. P12-E21*(clone 24-7); experiment: immunoblot of GST-IL31 fragment fusions probed with caninized M14 (panel label reads 'Anti-IL13 (caninized)'); anti-GST blot below
GST-IL31.P12-E21.I19A [10] = target: T4, GST-IL31.P12-E21.I19A; experiment: as above
GST-IL31.P12-E21.I18A = target: T9, GST-IL31.P12-E21.I18A; experiment: as above
T9 sequence (GST fusion protein): PSDVRKAILE

GST-IL31.P12-E21.L20A [11] = target: T5, GST-IL31.P12-E21.L20A; experiment: as above

- binding [1]: binds
- binding (GST-IL31.P12-E21.V15A): binds
- binding [2]: binds
- binding [3]: binds
- binding [4]: binds
- binding (GST-IL31.P12-E21.I19A [5]): binds
- binding (GST-IL31.P12-E21.L20A [6]): binds
B1: monoclonal antibody M14 (mouse antibody clone M14) (antibody, V domains shown)
VH: EVQLQESGPSLVKPSQTLSLTCSVTGDSITSGYWNWIRKFPGNKLEYMGYISYSGITDYNPSLKSRISITRDTSKNQYYLQLNSVTTEDTATYYCARYGNYGYAMDYWGQGTSVTVSS
VL: DIVLTQSPASLAVSLGQRATISCRASESVDTYGNSFMHWYQQKSGQSPKLLIYRASNLESGIPARFGGSGSRTDFTLTIDPVEADDVATYYCQQSYEDPWTFGGGTKLEIK

- binding (GST-IL31(P34-K58*)): binds
- binding [7]: binds
- binding (GST-IL31(P34-K58*).E43A): binds
- binding [8]: binds
B2: chimeric M14 (murine M14 VH and VL fused to canine IgG-B constant heavy chain and canine constant light chain) (antibody, V domains shown)
VH: B1 VH
VL: DIVLTQSPASLAVSLGQRATISCRASESVDTYGNSFMHWYQQKSGQSPKLLIYRASNLESGIPARFGGSGSRTDFTLTIDPVEADDVATYYCQQSYEDPWTFGGGTKLEIKR
notes: expressed in CHO cells, Protein A purified; also called chimeric M14 antibody

- binding [9]: binds
- binding (GST-IL31.P12-E21.I19A [10]): binds
- binding (GST-IL31.P12-E21.I18A): binds
- binding (GST-IL31.P12-E21.L20A [11]): binds
B3: caninized M14 IgG-B (antibody, V domains shown)
VH: B1 VH with Q5V, S15G, Q16G, T17S, S19R, S68T, T70S, S113L
VL: B2 VL with L4M, A12S, S44P, R72G, E83Q
notes: Caninized M14 on canine IgG-B with canine light chain constant region; also called caninized M14 antibody
